The values that follow come from BindingDB's records for PubMed 2139469 (University of Nebraska, 1990).

The chains behind the UniProt entries cited, without tags or fusion partners.
UniProt Q95136, whole entry: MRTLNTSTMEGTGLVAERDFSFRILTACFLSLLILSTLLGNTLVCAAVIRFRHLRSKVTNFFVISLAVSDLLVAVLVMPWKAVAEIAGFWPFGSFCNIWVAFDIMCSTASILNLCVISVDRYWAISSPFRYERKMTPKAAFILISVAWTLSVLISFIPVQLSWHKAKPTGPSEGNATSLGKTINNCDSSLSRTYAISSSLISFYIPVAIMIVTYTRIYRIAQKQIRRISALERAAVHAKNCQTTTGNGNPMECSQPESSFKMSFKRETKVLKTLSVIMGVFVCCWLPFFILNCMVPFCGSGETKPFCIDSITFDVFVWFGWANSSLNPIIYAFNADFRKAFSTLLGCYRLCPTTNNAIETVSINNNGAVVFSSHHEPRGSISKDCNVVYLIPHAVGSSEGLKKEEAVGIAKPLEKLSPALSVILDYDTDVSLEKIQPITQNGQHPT

Counter-ions that a name gives are not always drawn.

For the assay, the target named is D(1A) dopamine receptor (Bos taurus, UniProt Q95136).

Broadly, the Ki is a measure of affinity in units of concentration, obtained from inhibition or displacement. High values mean a looser hold on the target, low ones a stronger hold on the target. `CC(C)NC[C@H](O)COc1cccc2ccccc12` [Propanolol,(+/-)] came in with an inhibition constant (Ki) above 10000 nM. Next, `OCCN1CCN(CCCN2c3ccccc3Sc3ccc(C(F)(F)F)cc32)CC1` [2-[4-[3-[2-(trifluoromethyl)phenothiazin-10-yl]propyl]piperazin-1-yl]ethanol;hydrochloride]: 18 nM.
